Our source for the binding values is patent US20110008356A1.

These are yes or no findings as the source states them, for the method shown. Some entries that bind do so weakly or less than the wild type.

This experiment addresses Human IL-17RA:Fc (human), Q96F46. Put plainly: SPR (BIAcore). Particulars: remark: other sources report otherwise. For orientation: SPR reads the build-up and loss of mass on a sensor chip optically.

B1: Human IL-17F, Q96PD4 31-163 (ligand, UniProt Q96PD4 31-163, looked up)
chain: RKIPKVGHTFFQKPESCPPVPGGSMKLDIGIINENQRVSMSRNIESRSTSPWNYTVTWDPNRYPSEVVQAQCRNLGCINAQGKEDISMNSVPIQQETLVVRRKHQGCSVSFQLEKVLVTVGCTCVTPVIHHVQ
On to B1, for which the binding entry was “binds”.
